Assay results reported in PMC9652315.
These are yes or no findings as the source states them, for the method shown. Binding seen in cells or lysates may run through a third protein. Some binding calls cover weakened binding; strength is not graded here. Where a sequence is shown, tags or fusion partners need not be part of it.

The chains behind the UniProt entries cited, without tags or fusion partners. Residues count along the entry.
UniProt P63165, residues 1-97: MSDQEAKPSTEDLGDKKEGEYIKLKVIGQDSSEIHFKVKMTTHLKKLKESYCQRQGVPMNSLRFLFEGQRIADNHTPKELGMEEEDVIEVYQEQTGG
UniProt P61956: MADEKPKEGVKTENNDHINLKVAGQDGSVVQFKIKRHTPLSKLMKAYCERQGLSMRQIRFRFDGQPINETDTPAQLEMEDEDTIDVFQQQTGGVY
UniProt P60953: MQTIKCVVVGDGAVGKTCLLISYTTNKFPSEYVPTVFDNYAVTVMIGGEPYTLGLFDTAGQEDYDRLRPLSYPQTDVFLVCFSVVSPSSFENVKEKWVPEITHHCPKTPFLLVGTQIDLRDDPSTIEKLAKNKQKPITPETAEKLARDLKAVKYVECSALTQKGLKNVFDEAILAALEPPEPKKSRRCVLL

What was measured:
[1] = molecular target: T1, pTINCR-HA; assay: co-IP; U2OS cells co-transfected with pTINCR-HA and CDC42-Flag plasmids; anti-HA immunoprecipitation; anti-HA and anti-Flag blots
T1 sequence: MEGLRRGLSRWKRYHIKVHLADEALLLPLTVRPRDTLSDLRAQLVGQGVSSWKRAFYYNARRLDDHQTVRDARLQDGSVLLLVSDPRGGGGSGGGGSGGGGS

[2] = molecular target: GST-SUMO1 (UniProt P63165); assay: pull-down; GST-SUMO1 or GST-SUMO2/3 bound onto glutathione-sepharose beads, incubated with protein extracts of U2OS cells (doxycycline 48 h) for 2 h at 4 °C; Western blot; only the target purified
[3] = molecular target: GST-SUMO2/3 (UniProt P61956); assay: as above

Row | Molecule | binding [1] | binding [2] | binding [3]
1 | CDC42-Flag (from UniProt P60953 1-191) | binds | – | –
2 | pTINCR-HA (protein, UniProt A0A2R8Y7D0 1-87) MEGLRRGLSRWKRYHIKVHLADEALLLPLTVRPRDTLSDLRAQLVGQGVSSWKRAFYYNARRLDDHQTVRDARLQDGSVLLLVSDPRGGGGSGGGGSGGGGS | – | binds | binds
